This series in a line: Cooling intensity: panelists taste aqueous solutions, compared with menthol at 2 ppm. The format is in vivo, human. The note with it: aqueous solution at the concentration listed in Table 1.
For `COc1cc(CNC(c2ccccc2)c2ccccc2)ccc1O` [Example 1, 4-((benzhydrylamino)methyl)-2-methoxyphenol], the Odor entry is given as “None”.
Take `COc1cc(COC(c2ccccc2)c2ccccc2)ccc1O` [Example 4, 4-((benzhydryloxy)methyl)-2-methoxyphenol]: the Odor result was “None”.
Take `CC1CCC(C(C)C)C(O)C1` (stereo not shown) [I-Menthol, reference compound]: the Odor result was “Minty”.
Take `CCNC(=O)C1CC(C)CCC1C(C)C` (stereo not shown) [N-ethyl p-menthanecarboxamide (WS-3), N-ethyl p-menthanecarboxamide, reference compound]: the Odor result was “None”.
